The exact form of at least one protein or probe is not confirmed. Where cells or extracts were used, other partners may take part.
Test system: GABP-alpha/GABP-beta (endogenous, L6 myotube nuclear extract)
Test: pull-down
Conditions: 58 and 43 kDa proteins eluted with 2 M KCl, identified by immunoblot; protein in an extract; variant of UtroNBox probe

ATCTTCCGGAAC (double strand) [UtroNBox coupled to magnetic particles]
binding result: binds

— patent US20020086017, “GA binding protein and neurite derived growth factors for use in the treatment of muscular dystrophy” (published 2002)
